This note sets out measurements from patent US20150056222A1.

This test deals with monkey (macaca fascicularis) PRLR on HEK293 cells (macaca fascicularis). Put plainly: FACS; footnote: specific binding on HEK293/hPRLR, HEK293/mfPRLR and T47D. A general note: In flow cytometry, cells or beads pass a laser one at a time.

These are yes or no findings as the source states them, for the method shown. Some entries that bind do so weakly or less than the wild type.

B1: H1H6966N (antibody, human IgG1, V domains shown)
VH: QVQLVQSGAEVQKPGASVKVSCKVSGYTLTALSIHWVRQAPGKGLEWMGNFDPGDGETIHAQKFQGRVTMTGDTSTDTAYMELSSLRSEDTAVYYCVGVTFDYWGQGTLVTVSS
VL: EIVMTQSPATLSVSPGERATLSCRASQSVASNLAWYQQKPGQAPRLLLYGASTRATGIPARFSGSGSGTEFTLTISSLQSEDFALYYCQHYNNWPLTFGGGTKVEIK
B1: the binding result was “binds”.

B2: H1H6967N (antibody, human IgG1, V domains shown)
VH: EVQLVESGGDLVHPGRSLRLSCAASGFPFDEYAMHWVRQVPGKGLEWVSGISWSNNNIGYADSVKGRFTISRDNAKNSLYLQMNSLRPEDTAFYYCAKSGIFDSWGQGTLVTVSS
VL: EIVMTQSPATLSVSPGERATLSCRASQSVSRDLAWYQQKPGQAPRLLIHGASTRATGIPARFSGSGSGAEFTLIISSLQSEDFAVYYCQQYNNWPLTFGGGTKVEIK
As for B2, the binding entry is on record as “binds”.

B3: H1H6792P (antibody, human IgG1, V domains shown)
VH: EVQLVESGGGLVQPGRSLRLSCAASGFTLDDHAVHWVRQAPGKGLEWVSGISWNSVYIDYADSVKGRFTIFRDNAKNSLYLQMNSLRAEDTAFYYCARDIEGARDYWGQGTLVTVSS
VL: DIQMTQSPSSLSASVGDRVTITCRASQGIRNDLGWYQQKPGKAPKRLIYAASSLQSGVPSRFSGSGYGTEFTLTISSLQPEDFAPYYCLQHNSYPLTFGGGTKVEIK
As for B3, the binding result is recorded as “binds”.

B4: H1H6800P (antibody, human IgG1, V domains shown)
VH: EVQLVESGGGLVQPGRSLRLSCAASGFTFDGYAMHWVRQGPGKGLEWVSGISWYSDTLGYADSVKGRFTISRDNAKNSLYLQMNSLRTEDTAFYYCAKISSSGWAFDYWGQGTLVTVSS
VL: EIVLTQSPGTLSLSPGERATLSCRASHSVSSAYLAWYQQKPGQTPRLLIYGTSSRATGIPDRFSGSGSGTDFTLTISRLEPEDFAVYYCQQYGSSPLFTFGPGTKVDIK
Consider B4, for which the binding result is listed as “binds”.

B5: H1H6765P (antibody, human IgG1, V domains shown)
VH: EVQLVESGGGVVRPGGSLRLSCVGSGFSFDDHGMNWVRQGPGKGLEWVSGFNWNGGSTNYAESVKGRFTISRDNARNSLFLQMNSLRAEDTALYYCVRGRSGWFNDAFDVWGPGTMVTVSS
VL: EIVLTQSPGTLSLSPGERATLSCRASQTINSNYLAWYRQKPGQTPRLLIYGTSSRATGIPDRFSGSGSGTDFSLTISRLEPEDFAVFYCQQYAGLPTFGPGTKVDIK
In the case of B5, the binding result is “binds”.

B6: H1H6781P (antibody, human IgG1, V domains shown)
VH: EVQLVESGGDLVQPGESLRLSCTASGFTFNSYEMNWVRQAPGKGLEWVSYISSSGGTKYYVDSVKGRFTISRDNAKKSLYLQMNSLRADDTALYYCARLNGVDVFDIWGQGTMVTVSS
VL: DIQMTQSPSSLSASVGDRVTITCRASQDIFNYLAWFQQKPGKVPELLISAASTLQSGVPSRFSGSGSGTYFTLTISSLQPEDIATYYCQRYNSAPLTFGGGTKVEIK
Take B6: the binding result was “binds”.

B7: H1H6785P (antibody, human IgG1, V domains shown)
VH: EVQLVESGGGLVQPGGSLRLSCAASGFTFSSYEMNWVRQAPGKGLEWISYISSRGGTIYYADSIKGRFTIYRDNARNSLYLQMNSLRAEDTAIYYCARLSGVDIFDIWGQGTMVTVSS
VL: DIQMTQSPSSLSASVGDRVTITCRASQGISNYLAWYQQKPGKVPKLLIYFASTLQSGVPSRFSGGGSGTDFTLTISSLQPEDVATYYCQRYNSAPLTFGGGTKVEIK
As for B7, the binding entry was “binds”.

B8: H1H6803P (antibody, human IgG1, V domains shown)
VH: EVQLVESGGGVVRPGGSLRLSCAASGFKFDDYGMTWVRHVPGKGLEWVSGINWNGGRTGYTDSVKGRFTISRDNAKNSLYLQMNSLRAEDTALYHCAGARRDAFDIWGQGTMVTVSS
VL: DIQMTQSPSSLSASIGDRVTITCRASQNIIKYLNWYQQNAGKAPKLLIYTASSLQSGVPSRFSGSGSGTDFTLTISSLQPEDFATYYCQQSSSSPYTFGQGTKLEIK
On to B8, for which the binding result is listed as “binds”.

B9: H1H6790P (antibody, human IgG1, V domains shown)
VH: EVQLVESGGGLVQPGGSLRLSCAASGFTFSSYAMTWVRQAPGKGLEWVSAITGSVGNTYYADSVKGRFTISRDNSKNTLYLQMNSLGAEDTAEYYCAKGAGMTTNWYLDLWGRGTLVTVSS
VL: DIVMTQSPDSLAVSLGARATINCKSSQSVLYSSNNQNYLTWYQQKPGQPPKLLIKWASTRESGVPDRFSGSGSGTDFTLTISSLQAEDVAVYYCQQYASSPYTFGQGTKLEIK
Turning to B9, the binding entry is “binds”.

B10: H1H6958N2 (antibody, human IgG1, V domains shown)
VH: QVQLVESGGGVVQPGRSLRLSCGASGFTFRNYGMQWVRQGPGKGLEWVTLISFDGNDKYYADSVKGRFTISRDNSKNTLFLQMNSLRTEDTAVYYCARGGDFDYWGQGTLVTVSS
VL: DIQMTQSPSSLSASVGDRVTITCRASQDIRKDLGWYQQKPGKAPKRLIYAASSLHSGVPSRFSGSGSGTEFTLTISSLQPEDFATYYCLQHNSYPMYTFGQGTKLEIK
Take B10: the binding entry is “binds”.

B11: H1H6762P (antibody, human IgG1, V domains shown)
VH: QVQLVESGGGVVQPGRSLRLSCAASGFTFSHYGMVWVRQPPGKGLEWVALISFDGTTKYYADSVKGRFTISRDNSKNTLYLQMNSLRAEDTAVYFCVGAIAAAAFDLWGRGTLVTVSS
VL: EIVMTQSPATLSVSPGERATLSCRASQSVSSDLAWYQQKPGQAPRLLIYSASARATGIPARFTGSGSGTDFTLTISSLQSEDFAVYYCQQYNNWPMYTFGQGTKLEIK
As for B11, the binding entry is given as “binds”.

B12: H1H6975N (antibody, human IgG1, V domains shown)
VH: EVHLVESGGGLVQPGGSLRLSCAASGFTFSSYEMNWVRQTPGKGLEWISHISSRSVIIYYADSVKGRFTISRDNAKNSLFLQMNSLRAEDTAVYFCAGITIFGIPEYWGQGTLVTVSS
VL: EIVLTQSPATLSLSPGERATLSCRASQSVSSYFAWYQQKPGQAPRLLIYDASSRATGIPTRFSGSGSGTDFTLTISSLEPEDFAVYYCQQRSSWPITFGQGTRLEIK
As to B12, the binding entry is “binds”.

B13: H1H6953N (antibody, human IgG1, V domains shown)
VH: EVQLLESGGGLVQPGGTLRLSCAASGFTFSAYAMSWVRQAPGKGLEWVSSINVRAGDTYYADSVKGRFTISRDNSKNTLFLLMNSLRAEDTAAYYCAKARYSSNWGFDFWGQGTLVTVSS
VL: DIVMTQSPDSLTVSLGARTTINCQSSQTILHSSNNHNYLAWYQQKPGLPPKLLIYWSSTRESGVPDRFSGSGSGTDFTLTISSLQAEDVAIYYCQQYSNTPYTFGQGTKLEIN
B13: the binding result is on record as “binds”.

B14: H1H6960N (antibody, human IgG1, V domains shown)
VH: EVQLVESGGGLVKPGGSLRLSCAASGITFSSYSMNWVRQAPGKGLEWVSSISTRSSLIHYADSVKGRFTISRDNAKNSLYLQMNSLRDEDTAVYYCARWDAAAAFDYWGQGTLVIVSS
VL: DIQLTQSPSFLSASVGDRVTITCWASQGISSYLAWYQQKPGKAPKLLIYVASTLQSGVPSRFSGSGSGTEFTLTISSLQPEDFATYFCQQLNSYPLTFGGGTKVEIK
For B14, the binding result is reported as “binds”.
